Some of these results come from one statement about several compounds together.
System: HULLK
Assay: qPCR validation of shRNA knockdown of HULLK in PCa cells
Type: cell-based, human
Conditions: LNCaP, C4-2, and Rv1 cells

## shLCK-3: shRNA targeting the carboxy-terminal of LCK (HULLK), nucleotide sequence SEQ ID NO: 25 (CCGGGGGATCCTGCTGACGGAAATTCTCGAGAATTTCCGTCAGCAGGATCCCTTTTTG)
  decrease in HULLK expression: 70-90%

## shLCK-4: shRNA targeting the carboxy-terminal of LCK (HULLK), nucleotide sequence SEQ ID NO: 26 (CCGGTCACATGGCCTATGCACATATCTCGAGATATGTGCATAGGCCATGTGATTTTTG)
  decrease in HULLK expression: 70-90%
